Data: article doi:10.1101/2021.11.06.467519
Results are given in words; binding and its absence hold for the method and conditions named. In cells and extracts the contact can be indirect.

By UniProt entry, the sequences of proteins in these tests, tags left out.
UniProt Q9HC98: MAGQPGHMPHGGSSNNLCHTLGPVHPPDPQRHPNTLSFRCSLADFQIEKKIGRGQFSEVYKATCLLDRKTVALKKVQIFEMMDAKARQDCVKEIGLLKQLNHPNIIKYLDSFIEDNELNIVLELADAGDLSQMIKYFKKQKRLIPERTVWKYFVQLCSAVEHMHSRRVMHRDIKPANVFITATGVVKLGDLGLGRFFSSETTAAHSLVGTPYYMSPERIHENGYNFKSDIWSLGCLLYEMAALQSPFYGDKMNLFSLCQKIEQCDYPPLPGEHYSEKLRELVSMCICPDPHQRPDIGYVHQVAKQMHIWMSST

Molecular target: T1, YME1L1 (human (endogenous in HTR8/SVNeo)) (UniProt Q96TA2)
T1 sequence: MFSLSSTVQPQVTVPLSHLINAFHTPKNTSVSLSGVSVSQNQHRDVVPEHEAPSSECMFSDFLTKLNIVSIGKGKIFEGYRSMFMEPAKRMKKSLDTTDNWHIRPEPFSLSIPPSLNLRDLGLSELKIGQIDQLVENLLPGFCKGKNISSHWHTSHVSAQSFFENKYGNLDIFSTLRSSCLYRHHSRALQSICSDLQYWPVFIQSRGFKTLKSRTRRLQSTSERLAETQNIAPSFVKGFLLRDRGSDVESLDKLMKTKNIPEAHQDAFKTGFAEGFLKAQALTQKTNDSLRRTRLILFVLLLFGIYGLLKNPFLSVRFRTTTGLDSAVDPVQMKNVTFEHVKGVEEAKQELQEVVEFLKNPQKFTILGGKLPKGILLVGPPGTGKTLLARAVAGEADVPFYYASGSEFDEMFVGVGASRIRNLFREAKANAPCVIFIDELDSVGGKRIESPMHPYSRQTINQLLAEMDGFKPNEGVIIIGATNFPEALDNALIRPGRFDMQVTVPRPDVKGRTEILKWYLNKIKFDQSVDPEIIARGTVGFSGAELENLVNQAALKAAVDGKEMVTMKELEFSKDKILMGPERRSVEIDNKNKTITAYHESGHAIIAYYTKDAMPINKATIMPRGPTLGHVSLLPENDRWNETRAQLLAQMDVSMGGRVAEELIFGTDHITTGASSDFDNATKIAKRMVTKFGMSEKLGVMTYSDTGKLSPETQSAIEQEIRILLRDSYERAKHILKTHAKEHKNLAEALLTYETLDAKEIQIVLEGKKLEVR
Assay: co-IP

## NEK6 kinase (from UniProt Q9HC98 1-313) (enzyme)
  binding: no binding
